The values below come from publication doi:10.1101/2025.09.25.678692.

Assay in all cases: split reporter
The target of experiment [1] is CYP1A2-NT (N1-33) signal-anchor subdomain tagged with a split SURF reporter (rabbit) (UniProt P00187).
The target of experiment [2] is T1, erlin-1-NT (N1-30)-nSURF (human) (UniProt O75477).
T1 sequence: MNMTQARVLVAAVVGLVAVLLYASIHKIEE

Experiment [3] concerns the target T2, full-length (FL) erlin-1-nSURF (human) (UniProt O75477).
T2 sequence: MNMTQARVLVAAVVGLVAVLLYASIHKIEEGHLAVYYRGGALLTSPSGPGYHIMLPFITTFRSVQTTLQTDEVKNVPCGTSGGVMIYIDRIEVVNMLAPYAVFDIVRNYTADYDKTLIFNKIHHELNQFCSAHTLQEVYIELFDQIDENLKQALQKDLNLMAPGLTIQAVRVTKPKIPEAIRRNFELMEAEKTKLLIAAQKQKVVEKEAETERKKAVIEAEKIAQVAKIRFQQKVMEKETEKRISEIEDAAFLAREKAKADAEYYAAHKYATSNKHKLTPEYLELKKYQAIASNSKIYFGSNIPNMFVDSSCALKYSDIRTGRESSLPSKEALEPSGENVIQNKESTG

The target in experiment [4] is T2, full-length (FL) erlin-1-nSURF (human). The source holds these as a separate data set.
Experiment [5] addresses full-length (FL) rabbit liver CYP1A2 tagged with a split SURF reporter (CYP1A2-cSURF; CYP1A2-nSURF) (rabbit) (UniProt P00187).
Experiment [6] concerns the target T3, full-length (FL) erlin-2-cSURF (human) (UniProt O94905).
T3 sequence: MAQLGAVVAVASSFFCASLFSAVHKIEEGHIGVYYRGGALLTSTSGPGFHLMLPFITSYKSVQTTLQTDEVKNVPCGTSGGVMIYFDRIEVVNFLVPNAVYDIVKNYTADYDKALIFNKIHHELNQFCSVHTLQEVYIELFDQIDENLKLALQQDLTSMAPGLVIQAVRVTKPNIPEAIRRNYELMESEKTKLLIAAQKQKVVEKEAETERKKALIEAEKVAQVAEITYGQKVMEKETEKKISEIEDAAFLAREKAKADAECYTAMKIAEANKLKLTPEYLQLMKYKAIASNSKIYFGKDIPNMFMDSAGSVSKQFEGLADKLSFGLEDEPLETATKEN

Read-outs that look alike come from different tables or passages of the source. Results are given in words; binding and its absence hold for the method and conditions named. In cells and extracts the contact can be indirect. Some binding calls cover weakened binding; strength is not graded here. Sequences can lack the tags named with a protein.

B1: CYP1A2-NT (N1-33) signal-anchor subdomain tagged with a split SURF reporter (domain or fragment, UniProt P00187 1-33)
chain: MAMSPAAPLSVTELLLVSAVFCLVFWAVRASRP
Turning to B1, the binding entry in experiment [1] and in experiment [2] was “binds” each time.

B2: c-SURF-tagged ornithine decarboxylase 1 (ODC1-cSURF) (enzyme, UniProt P11926 1-461)
chain: MNNFGNEEFDCHFLDEGFTAKDILDQKINEVSSSDDKDAFYVADLGDILKKHLRWLKALPRVTPFYAVKCNDSKAIVKTLAATGTGFDCASKTEIQLVQSLGVPPERIIYANPCKQVSQIKYAANNGVQMMTFDSEVELMKVARAHPKAKLVLRIATDDSKAVCRLSVKFGATLRTSRLLLERAKELNIDVVGVSFHVGSGCTDPETFVQAISDARCVFDMGAEVGFSMYLLDIGGGFPGSEDVKLKFEEITGVINPALDKYFPSDSGVRIIAEPGRYYVASAFTLAVNIIAKKIVLKEQTGSDDEDESSEQTFMYYVNDGVYGSFNCILYDHAHVKPLLQKRPKPDEKYYSSSIWGPTCDGLDRIVERCDLPEMHVGDWMLFENMGAYTVAAASTFNGFQRPTIYYVMSGPAWQLMQQFQNPDFPPEVEEQDASTLPVSCAWESGMKRHRAACASASINV
With B2, the binding result in experiment [3] and in experiment [4] was “no binding” throughout.

B3: full-length (FL) rabbit liver CYP1A2 tagged with a split SURF reporter (CYP1A2-cSURF; CYP1A2-nSURF) (enzyme, UniProt P00187 1-516)
chain: MAMSPAAPLSVTELLLVSAVFCLVFWAVRASRPKVPKGLKRLPGPWGWPLLGHLLTLGKNPHVALARLSRRYGDVFQIRLGSTPVVVLSGLDTIKQALVRQGDDFKGRPDLYSSSFITEGQSMTFSPDSGPVWAARRRLAQDSLKSFSIASNPASSSSCYLEEHVSQEAENLIGRFQELMAAVGRFDPYSQLVVSAARVIGAMCFGRRFPQGSEEMLDVVRNSSKFVETASSGSPVDFFPILRYLPNRPLQRFKDFNQRFLRFLQKTVREHYEDFDRNSIQDITGALFKHSEKNSKANSGLIPQEKIVNLVNDIFGAGFDTITTALSWSLMYLVTNPRRQRKIQEELDAVVGRARQPRLSDRPQLPYLEAFILELFRHTSFVPFTIPHSTTRDTTLNGFHIPKECCIFINQWQINHDPQLWGDPEEFRPERFLTADGAAINKPLSEKVTLFGLGKRRCIGETLARWEVFLFLAILLQRLEFSVPPGVPVDLTPIYGLTMKHPRCEHVQARPRFSDQ
Consider B3, for which the binding entry in experiment [5], in experiment [3], in experiment [6] and in experiment [4] was “binds” in each case.
